# PubChem BioAssay (NCATS)
# The list shows a part of the results. Further columns of the screen follow, without active or inactive calls. Most of these compounds were active or inconclusive in the main read-out, so they are no random draw. Potencies come from curve fits of mixed quality, noted in brackets.
# How the values were obtained:
# [1] = qHTS Assay for Modulators of Human Peripheral Myelin Protein 22 (PMP22) Expression/Activity (AID 1967); conditions: Cell-based PMP22 reporter, dual-color luciferase ratio
# Summary of the method: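 Mouse MSC80 Schwann cells carrying Pmp22 promoter–green click beetle luciferase plus EF-alpha–red luciferase control, dosed 24 h at 37 °C. Dual-filter luminescence, overlap-corrected; %Activity from green/red ratio normalised to untreated cells, concentration-response curves fitted.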
# [2] = qHTS Validation Assay to Find Inhibitors of Chronic Active B-Cell Receptor Signaling (AID 485345); conditions: ABC-DLBCL cells, chronic BCR signaling reporter
# Summary of the method: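 TMD8 ABC-DLBCL cells stably carrying doxycycline-inducible IkappaBalpha–green luciferase fusion plus unfused red luciferase; compounds 46 uM to 3 nM, 4 h at 37C with doxycycline. Corrected green/red luminescence ratio normalized to 10 uM MG-132 and basal cell wells; curves fitted.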
# [3] = Nrf2 qHTS screen for inhibitors: Validation (AID 493153); conditions: A549 ARE-Fluc reporter, 18-24 h; AC50: CellTiter-Fluor fluorescence read, measured here: cytotoxicity CellTiter-Fluor AC50; viability change: measured here: cytotoxicity max response
# Summary of the method: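 A549 cells carrying an ARE-driven firefly luciferase reporter, in 5% FBS OPTI-MEM, were treated with compounds in concentration-response for 18-24 h at 37°C. Viability was read by CellTiter-Fluor fluorescence, then Nrf2 activity by luciferase luminescence.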
# [4] = measured here: green reporter channel AC50, mouse Pmp22 promoter in mouse Schwann cells
# [5] = measured here: red reporter channel AC50, EF-alpha promoter control reporter in MSC80 mouse Schwann cells
# [6] = measured here: CBG/CBR ratio read-out
structure (smiles),measurement,setting,value
Cc1ccccc1CNc1ncnc2c1ncn2C1OC(CO)C(O)C1O (stereo unspecified),AC50,[1]; [4],"16.9 µM [falling, full curve]"
same,AC50,[1]; [5],"21.3 µM [falling, partial curve]"
same,AC50,[2]; [6],"0.731 µM [falling, full curve]"
same,AC50,[2]; measured here: CBR control luciferase (viability counter),"0.291 µM [rising, full curve]"
same,viability change,[3],-6.73%
CC#C[C@]1(O)CC[C@H]2C3CCC4=CC(=O)CCC4=C3[C@@H](c3ccc(N(C)C)cc3)C[C@@]21C (stereo partly specified),AC50,[1]; [4],"26.9 µM [falling, full curve]"
same,AC50,[1]; [5],"30.1 µM [falling, full curve]"
NCCNC(=O)c1ccc(Cl)cc1,AC50,[1]; [5],"84.9 µM [falling, single point]"
O=C(O)CN(CCN(CC(=O)O)CC(=O)O)CCN(CC(=O)O)CC(=O)O,AC50,[1]; [5],"95.3 µM [falling, single point]"
Cc1nc(N=Nc2ccc(C(=O)O)cc2)c(COP(=O)(O)O)c(C=O)c1O,AC50,[1]; [5],"84.9 µM [falling, single point]"
O=C(O)c1ccccc1Nc1ccccc1,AC50,[1]; [4],"5.36 µM [rising, full curve, poor fit]"
COc1cccc2c1[C@@H]1CN(CCCCn3c(=O)[nH]c4c(sc5ncc(-c6ccccc6)nc54)c3=O)C[C@@H]1CO2,AC50,[1]; [4],"30.1 µM [falling, full curve]"
same,AC50,[1]; [5],"30.1 µM [falling, full curve, poor fit]"
same,AC50,[2]; [6],"16.4 µM [falling, single point]"
same,AC50,[3],"29.1 µM [falling, partial curve, poor fit]"
same,viability change,[3],-27.9%
